The series in a line: Sensory evaluation (smell, color, taste) of Maillard reaction samples. Set-up: species or system human.
Setting [1] is: Table 52.2, samples prepared in Example 50.
The mark [2] stands for this setting: Table 52.5, samples prepared in Example 50.

As to `C[C@H](N)C(=O)O` [0.1 mMol Ala, Alanine], under setting [1], the Smell entry is recorded as “Agar”.

In the case of `NCCCC[C@H](N)C(=O)O` [0.1 mMol Lys, Lysine], the Smell entry (Table 52.3, samples prepared in Example 50) is recorded as “Popcorn”.

For the molecule `O=C[C@H](O)[C@@H](O)[C@H](O)[C@H](O)C(=O)O` [Glucuronic Acid], under setting [2], the Smell result was “burnt bread”.

Consider `O=C[C@H](O)[C@H]1OC(=O)[C@@H](O)[C@H]1O` [Glucuronolactone], for which the Smell result is recorded as “Burnt sugar” under setting [2] and “Burnt sugar” (Table 57.3, after reaction, 10 ml KH2PO4, pH 7.8, 2.5 h, 120 °C).

Take `C=C1C[C@@]23CC[C@H]4[C@@](C)(CCC[C@@]4(C)C(=O)O[C@@H]4O[C@H](CO)[C@@H](O)[C@H](O)[C@H]4O)[C@@H]2CC[C@]1(O[C@@H]1O[C@H](CO)[C@@H](O)[C@H](O[C@@H]2O[C@H](CO)[C@@H](O)[C@H](O)[C@H]2O)[C@H]1O[C@@H]1O[C@H](CO)[C@@H](O)[C@H](O)[C@H]1O)C3` [Reb-A, Rebaudioside A]: under setting [1], the Smell entry is recorded as “neutral/unpleasant”.

Consider `O=C[C@H](O)[C@@H](O)[C@H](O)CO` [Xyl, xylose], for which the Smell result is on record as “neutral/meat” (Table 52.1, samples prepared in Example 50); “Slightly Popcorn” (Table 52.6, sugar alone); “neutral” (Table 52.7, samples prepared in Example 50).
